The list shows a part of the results.

The chains behind the UniProt entries cited, without tags or fusion partners. Where a name states a change or a piece, a line headed by the entry shows the natural chain unless it says otherwise.
UniProt Q15526: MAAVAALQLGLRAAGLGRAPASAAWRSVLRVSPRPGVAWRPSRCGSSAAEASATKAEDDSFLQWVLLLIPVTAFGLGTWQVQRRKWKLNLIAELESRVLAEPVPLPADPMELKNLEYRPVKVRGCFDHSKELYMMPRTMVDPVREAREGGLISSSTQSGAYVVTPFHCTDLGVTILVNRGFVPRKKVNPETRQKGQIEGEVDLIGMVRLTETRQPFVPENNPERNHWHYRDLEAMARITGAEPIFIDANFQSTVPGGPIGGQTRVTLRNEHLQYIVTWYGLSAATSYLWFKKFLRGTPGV
UniProt Q7L7X3: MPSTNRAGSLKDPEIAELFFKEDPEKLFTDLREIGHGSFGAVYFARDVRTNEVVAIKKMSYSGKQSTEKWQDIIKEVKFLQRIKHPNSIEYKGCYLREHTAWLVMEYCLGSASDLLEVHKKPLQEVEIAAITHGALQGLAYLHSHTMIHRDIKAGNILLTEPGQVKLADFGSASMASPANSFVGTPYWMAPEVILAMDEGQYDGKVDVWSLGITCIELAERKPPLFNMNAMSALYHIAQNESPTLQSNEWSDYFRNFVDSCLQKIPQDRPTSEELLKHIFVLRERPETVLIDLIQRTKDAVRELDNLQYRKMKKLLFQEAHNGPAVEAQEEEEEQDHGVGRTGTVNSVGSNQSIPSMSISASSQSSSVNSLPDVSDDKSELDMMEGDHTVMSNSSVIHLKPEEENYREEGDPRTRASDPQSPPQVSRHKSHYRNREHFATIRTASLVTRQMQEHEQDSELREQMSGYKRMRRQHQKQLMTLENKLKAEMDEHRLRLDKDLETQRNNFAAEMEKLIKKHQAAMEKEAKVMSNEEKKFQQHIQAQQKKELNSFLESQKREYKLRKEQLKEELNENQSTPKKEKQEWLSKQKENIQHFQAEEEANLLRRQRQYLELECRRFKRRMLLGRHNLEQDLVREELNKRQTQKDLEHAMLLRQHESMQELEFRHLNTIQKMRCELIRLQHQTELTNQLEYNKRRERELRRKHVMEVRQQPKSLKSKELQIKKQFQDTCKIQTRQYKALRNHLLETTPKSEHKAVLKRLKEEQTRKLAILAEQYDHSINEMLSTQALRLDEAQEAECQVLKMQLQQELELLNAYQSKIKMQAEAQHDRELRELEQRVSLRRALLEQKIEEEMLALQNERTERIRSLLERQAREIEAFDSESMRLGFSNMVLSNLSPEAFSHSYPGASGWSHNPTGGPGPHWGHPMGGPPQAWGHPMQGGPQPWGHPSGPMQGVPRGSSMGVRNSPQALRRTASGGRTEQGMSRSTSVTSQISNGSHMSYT
UniProt Q7RTN6: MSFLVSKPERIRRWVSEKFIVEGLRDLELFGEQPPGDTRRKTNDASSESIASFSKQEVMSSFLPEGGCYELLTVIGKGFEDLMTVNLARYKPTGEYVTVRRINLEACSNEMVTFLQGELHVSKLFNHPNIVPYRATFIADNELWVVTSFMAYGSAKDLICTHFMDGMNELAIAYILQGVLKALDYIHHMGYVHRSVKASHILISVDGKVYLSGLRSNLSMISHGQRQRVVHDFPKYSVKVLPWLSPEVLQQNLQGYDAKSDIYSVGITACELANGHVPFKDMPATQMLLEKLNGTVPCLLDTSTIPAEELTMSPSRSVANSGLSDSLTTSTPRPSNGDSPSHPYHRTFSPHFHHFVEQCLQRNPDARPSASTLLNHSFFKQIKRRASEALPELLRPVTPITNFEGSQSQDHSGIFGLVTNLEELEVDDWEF
UniProt Q13190: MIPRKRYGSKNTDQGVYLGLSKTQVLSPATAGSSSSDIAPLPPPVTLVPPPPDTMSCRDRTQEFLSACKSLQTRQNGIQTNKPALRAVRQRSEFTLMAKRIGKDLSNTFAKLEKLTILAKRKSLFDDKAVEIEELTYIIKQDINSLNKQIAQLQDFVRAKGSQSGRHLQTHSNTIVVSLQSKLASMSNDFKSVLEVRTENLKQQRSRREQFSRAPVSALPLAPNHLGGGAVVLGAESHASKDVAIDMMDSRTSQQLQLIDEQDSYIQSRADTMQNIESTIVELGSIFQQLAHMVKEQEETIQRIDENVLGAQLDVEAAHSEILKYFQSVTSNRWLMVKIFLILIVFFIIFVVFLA
UniProt Q15833: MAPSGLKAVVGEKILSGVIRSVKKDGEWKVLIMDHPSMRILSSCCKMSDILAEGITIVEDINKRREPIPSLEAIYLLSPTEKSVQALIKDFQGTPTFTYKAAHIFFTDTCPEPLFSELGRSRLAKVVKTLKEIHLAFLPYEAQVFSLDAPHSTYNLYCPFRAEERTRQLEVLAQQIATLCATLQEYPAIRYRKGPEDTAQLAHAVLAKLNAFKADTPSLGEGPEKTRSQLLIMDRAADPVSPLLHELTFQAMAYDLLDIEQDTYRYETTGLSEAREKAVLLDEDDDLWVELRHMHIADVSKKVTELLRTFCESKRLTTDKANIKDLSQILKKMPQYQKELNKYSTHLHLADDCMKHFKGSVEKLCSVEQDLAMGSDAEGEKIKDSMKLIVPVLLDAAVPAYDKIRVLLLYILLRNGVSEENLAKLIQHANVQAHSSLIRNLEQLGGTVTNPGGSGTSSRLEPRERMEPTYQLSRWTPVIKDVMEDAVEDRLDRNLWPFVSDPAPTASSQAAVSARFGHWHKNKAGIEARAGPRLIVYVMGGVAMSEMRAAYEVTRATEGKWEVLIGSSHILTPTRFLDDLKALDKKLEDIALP
UniProt P50225: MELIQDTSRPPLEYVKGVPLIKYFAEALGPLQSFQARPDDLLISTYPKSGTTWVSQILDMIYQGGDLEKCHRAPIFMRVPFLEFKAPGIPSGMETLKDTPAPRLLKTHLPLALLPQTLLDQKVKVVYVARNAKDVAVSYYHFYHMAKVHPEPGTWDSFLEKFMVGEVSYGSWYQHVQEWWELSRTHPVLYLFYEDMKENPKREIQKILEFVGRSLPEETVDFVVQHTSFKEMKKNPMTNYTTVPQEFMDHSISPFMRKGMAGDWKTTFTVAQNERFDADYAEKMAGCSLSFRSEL
UniProt Q8IWZ8: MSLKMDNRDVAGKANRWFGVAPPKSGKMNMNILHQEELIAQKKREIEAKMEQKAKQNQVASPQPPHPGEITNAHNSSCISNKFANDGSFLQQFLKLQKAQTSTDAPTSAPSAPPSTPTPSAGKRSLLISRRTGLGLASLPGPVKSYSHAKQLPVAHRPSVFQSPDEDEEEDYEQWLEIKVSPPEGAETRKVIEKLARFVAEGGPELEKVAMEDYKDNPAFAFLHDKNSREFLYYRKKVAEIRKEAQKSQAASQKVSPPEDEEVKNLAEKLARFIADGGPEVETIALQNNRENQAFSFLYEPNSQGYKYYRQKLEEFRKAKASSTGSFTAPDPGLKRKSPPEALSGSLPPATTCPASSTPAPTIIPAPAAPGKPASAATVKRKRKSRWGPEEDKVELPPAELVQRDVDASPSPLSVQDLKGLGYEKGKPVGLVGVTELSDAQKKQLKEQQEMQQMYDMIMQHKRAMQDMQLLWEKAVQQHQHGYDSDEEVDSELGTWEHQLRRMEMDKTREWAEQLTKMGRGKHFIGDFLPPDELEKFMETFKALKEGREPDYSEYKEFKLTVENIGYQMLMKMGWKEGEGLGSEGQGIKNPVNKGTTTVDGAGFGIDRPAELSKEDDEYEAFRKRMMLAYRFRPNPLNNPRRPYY
UniProt Q9NVG8: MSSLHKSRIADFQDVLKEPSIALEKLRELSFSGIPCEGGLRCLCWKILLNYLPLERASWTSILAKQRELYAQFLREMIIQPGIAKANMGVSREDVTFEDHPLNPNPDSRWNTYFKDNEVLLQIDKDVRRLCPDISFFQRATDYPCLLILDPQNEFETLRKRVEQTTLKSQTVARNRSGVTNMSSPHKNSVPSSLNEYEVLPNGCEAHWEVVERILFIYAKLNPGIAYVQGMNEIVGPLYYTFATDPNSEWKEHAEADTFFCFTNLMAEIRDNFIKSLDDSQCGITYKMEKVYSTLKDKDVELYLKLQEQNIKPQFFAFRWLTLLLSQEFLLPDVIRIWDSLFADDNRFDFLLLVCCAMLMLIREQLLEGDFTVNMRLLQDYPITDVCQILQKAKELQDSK
UniProt Q17R31: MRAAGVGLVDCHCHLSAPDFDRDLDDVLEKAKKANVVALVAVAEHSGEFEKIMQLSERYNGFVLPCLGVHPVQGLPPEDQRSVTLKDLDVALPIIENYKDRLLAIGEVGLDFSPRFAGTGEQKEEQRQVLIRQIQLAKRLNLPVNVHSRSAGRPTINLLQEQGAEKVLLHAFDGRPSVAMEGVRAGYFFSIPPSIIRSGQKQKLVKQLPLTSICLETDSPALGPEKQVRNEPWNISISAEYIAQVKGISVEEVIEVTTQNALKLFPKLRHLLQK
UniProt O75410: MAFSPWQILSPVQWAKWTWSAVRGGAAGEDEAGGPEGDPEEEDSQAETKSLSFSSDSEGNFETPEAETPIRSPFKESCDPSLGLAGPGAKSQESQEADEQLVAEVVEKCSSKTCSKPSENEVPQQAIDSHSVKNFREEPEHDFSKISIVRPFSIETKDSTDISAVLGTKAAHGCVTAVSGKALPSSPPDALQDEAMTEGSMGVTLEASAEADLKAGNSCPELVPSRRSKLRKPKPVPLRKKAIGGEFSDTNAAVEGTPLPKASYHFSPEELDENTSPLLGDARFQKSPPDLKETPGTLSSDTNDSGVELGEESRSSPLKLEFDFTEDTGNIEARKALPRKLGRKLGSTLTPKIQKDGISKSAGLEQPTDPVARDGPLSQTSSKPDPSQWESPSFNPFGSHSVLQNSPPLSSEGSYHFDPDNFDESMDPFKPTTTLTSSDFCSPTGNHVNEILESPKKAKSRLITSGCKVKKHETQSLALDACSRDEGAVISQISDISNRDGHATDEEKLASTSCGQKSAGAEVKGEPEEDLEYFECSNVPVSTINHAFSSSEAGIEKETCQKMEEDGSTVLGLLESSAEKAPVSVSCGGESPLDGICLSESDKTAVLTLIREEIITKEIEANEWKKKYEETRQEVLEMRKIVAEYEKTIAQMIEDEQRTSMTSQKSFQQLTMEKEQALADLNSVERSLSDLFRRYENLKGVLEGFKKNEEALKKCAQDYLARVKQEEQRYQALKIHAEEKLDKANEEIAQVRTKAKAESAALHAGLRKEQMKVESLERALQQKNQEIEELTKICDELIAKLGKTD
UniProt Q9NZ72: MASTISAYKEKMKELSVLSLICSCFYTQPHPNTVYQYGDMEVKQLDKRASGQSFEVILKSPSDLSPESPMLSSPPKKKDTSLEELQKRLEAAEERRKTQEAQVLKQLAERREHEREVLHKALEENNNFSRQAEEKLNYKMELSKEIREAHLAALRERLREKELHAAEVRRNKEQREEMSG
UniProt O94901, whole entry, looked up: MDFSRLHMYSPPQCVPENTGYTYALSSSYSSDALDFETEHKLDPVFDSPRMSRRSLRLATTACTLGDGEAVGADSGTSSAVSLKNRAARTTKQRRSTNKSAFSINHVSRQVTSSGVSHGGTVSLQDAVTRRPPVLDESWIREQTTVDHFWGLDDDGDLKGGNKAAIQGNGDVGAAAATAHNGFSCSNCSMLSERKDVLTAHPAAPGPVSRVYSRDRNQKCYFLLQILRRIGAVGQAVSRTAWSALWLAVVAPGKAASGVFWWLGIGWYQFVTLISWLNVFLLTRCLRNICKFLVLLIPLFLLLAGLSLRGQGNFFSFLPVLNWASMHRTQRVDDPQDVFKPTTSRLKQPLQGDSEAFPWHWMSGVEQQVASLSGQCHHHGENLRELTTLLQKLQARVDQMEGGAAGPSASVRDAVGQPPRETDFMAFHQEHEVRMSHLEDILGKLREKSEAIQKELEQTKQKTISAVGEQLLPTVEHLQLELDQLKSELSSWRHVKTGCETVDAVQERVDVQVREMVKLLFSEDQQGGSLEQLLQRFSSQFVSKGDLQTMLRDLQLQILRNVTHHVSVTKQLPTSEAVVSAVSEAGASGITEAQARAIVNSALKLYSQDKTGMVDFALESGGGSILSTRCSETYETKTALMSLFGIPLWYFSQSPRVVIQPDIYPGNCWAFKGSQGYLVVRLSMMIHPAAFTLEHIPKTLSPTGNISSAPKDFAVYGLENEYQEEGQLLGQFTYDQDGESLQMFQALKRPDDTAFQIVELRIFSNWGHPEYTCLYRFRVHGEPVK
UniProt P37802: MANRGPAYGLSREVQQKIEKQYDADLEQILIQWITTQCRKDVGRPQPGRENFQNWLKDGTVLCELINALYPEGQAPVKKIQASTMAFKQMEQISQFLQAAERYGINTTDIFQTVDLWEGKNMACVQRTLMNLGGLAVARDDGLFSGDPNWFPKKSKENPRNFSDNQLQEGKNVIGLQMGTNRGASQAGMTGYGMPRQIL
UniProt Q86Y82: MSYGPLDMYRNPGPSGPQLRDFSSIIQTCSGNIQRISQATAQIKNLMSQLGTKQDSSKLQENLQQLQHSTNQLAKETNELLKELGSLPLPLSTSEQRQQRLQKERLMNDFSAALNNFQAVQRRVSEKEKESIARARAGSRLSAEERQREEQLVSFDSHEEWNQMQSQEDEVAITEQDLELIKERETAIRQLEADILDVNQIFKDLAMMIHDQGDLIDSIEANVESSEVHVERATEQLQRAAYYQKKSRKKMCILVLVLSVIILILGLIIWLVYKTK

Compound in the assay: COc1cccc2cc(-c3nc([C@H]4CC[C@H](C(=O)O)CC4)n4ncnc(N)c34)[nH]c12
Briefly: log2 fold change, soluble protein after heating vs DMSO (PISA); higher = thermal stabilisation; K562 cells, 10 uM, 30 min; active = over 0.2 and 3.5 SD of the protein, either way, in both replicates (recomputed). The method in brief: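 K562 cells at 2×10^6 cells/mL were treated for 30 min with 10 μM compound, and aliquots were heated for 3 min over 48°C-58°C before pooling. Extraction used PBS with 0.5% NP-40 at 4°C, and soluble protein was the supernatant after 21,000xg for 90 min, measured by TMTpro 16plex LC-MS/MS with channel sums equalised. Thermal stability values, relative to control samples and from duplicates, are log2 fold changes.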
For the target STX18 (UniProt Q9P2W9), the log2 fold change is inactive: -0.003.

For SYMPK (UniProt Q92797), the log2 fold change is inactive: 0.025.

Take SURF1 (UniProt Q15526): the log2 fold change was inactive: 0.083. Consider TANK (UniProt Q92844), for which the log2 fold change was inactive: 0.048. On to TAOK1 (UniProt Q7L7X3), for which the log2 fold change was inactive: 0.011. The result for STRIP1 (UniProt Q5VSL9) reads inactive: -0.057. On to STX4 (UniProt Q12846), for which the log2 fold change was inactive: 0.006. For TBC1D10B (UniProt Q4KMP7), the log2 fold change is inactive: -0.042. The result for STRADA (UniProt Q7RTN6) reads inactive: 0.071. For STX5 (UniProt Q13190) the value was inactive: -0.13.

With STXBP2 isoform 3 (UniProt Q15833), the log2 fold change is inactive: -0.066. SULT1A1 (UniProt P50225): the log2 fold change is inactive: -0.03. The result for SUGP1 (UniProt Q8IWZ8) reads inactive: -0.02; that for TBC1D13 (UniProt Q9NVG8), inactive: 0.064. The result for STOM (UniProt P27105) reads inactive: -0.004; that for SYNCRIP (UniProt O60506), inactive: -0.082.

For TANGO2 isoform 4 (UniProt Q6ICL3), the log2 fold change was inactive: 0.035. Consider STX6 (UniProt O43752), for which the log2 fold change was inactive: 0.009.

Turning to TAOK3 (UniProt Q9H2K8), the log2 fold change was inactive: -0.011.

With TARBP2 (UniProt Q15633), the log2 fold change was inactive: -0.162. The result for TACO1 (UniProt Q9BSH4) reads inactive: -0.169; that for SURF2 (UniProt Q15527), inactive: -0.034; that for SYNCRIP isoform 3 (UniProt O60506), inactive: -0.094. For SUPT4H1 (UniProt P63272), the log2 fold change was inactive: -0.158. The result for TATDN3 isoform 3 (UniProt Q17R31) reads inactive: 0.021; that for TACC1 isoform 2 (UniProt O75410), inactive: 0.009; that for TAX1BP1 (UniProt Q86VP1), inactive: 0.033. For STMN3 (UniProt Q9NZ72) the value was inactive: -0.015; for TAF8 isoform 2 (UniProt Q7Z7C8), inactive: -0.016. TARSL2 (UniProt A2RTX5): the log2 fold change was inactive: 0.023. For STRN (UniProt O43815) the value was inactive: 0.017; for SUN1 isoform 9 (UniProt O94901), inactive: 0.122; for STK38 (UniProt Q15208), inactive: -0.01.

As for STOML2 (UniProt Q9UJZ1), the log2 fold change is inactive: 0.016.

TAGLN2 isoform 2 (UniProt P37802): the log2 fold change was inactive: -0.024.

In the case of STX12 (UniProt Q86Y82), the log2 fold change is inactive: 0.031. SYNE2 isoform 2 (UniProt Q8WXH0): the log2 fold change is inactive: -0.004.

Regarding SULT1A3 isoform 3 (UniProt P0DMM9), the log2 fold change is inactive: -0.055.

The values above are taken from the supplement of paper PMC10849652.
